Laboratory results from the supplement of paper PMC4604168 (melanoma cell lines).
This is one part of the list. Repeats are few or missing, and single values can be far off.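 Cells were imaged in 1,536-well plates, and nuclei stained with an antibody against cleaved PARP were counted against all DNA-stained nuclei to give the apoptosis fraction. Screening doses were chosen to leave most cells alive, and resting and induced cleaved-PARP levels differ strongly between cell lines.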

system: CBRC017 (line from a melanoma biopsy); test: cleaved PARP positive nuclei fraction relative to DMSO control; melanoma cells; higher = more apoptosis; conditions: library dose: low library concentration; 72 h

Question: How did the “cleaved PARP positive nuclei fraction” value turn out when `N#CC[C@H](C1CCCC1)n1cc(-c2ncnc3[nH]ccc23)cn1` [ruxolitinib] + O=S(=O)(c1ccccc1)N(CC(F)(F)F)c1ccc(C(O)(C(F)(F)F)C(F)(F)F)cc1 [T0901317] (first compound 1 µM, partner dose 1.4 µM) was run?
Answer: 107%

Question: How did the “cleaved PARP positive nuclei fraction” value turn out when `Cc1cn(-c2cc(NC(=O)c3ccc(C)c(Nc4nccc(-c5cccnc5)n4)c3)cc(C(F)(F)F)c2)cn1` [nilotinib] + COC(=O)c1sccc1S(=O)(=O)Nc1ccc(Nc2ccccc2)cc1OC [GSK0660] (first compound 0.2 µM, partner dose 1 µM) was run?
Answer: 185%

Question: Which “cleaved PARP positive nuclei fraction” value does the source give for `Cc1ccc(Nc2nccc(N(C)c3ccc4c(C)n(C)nc4c3)n2)cc1S(N)(=O)=O` [Pazopanib] + O=C(O)C(=O)Nc1sc2c(c1C(=O)O)CCNC2 [TCS401] (first compound 0.4 µM, partner dose 1.66667 µM) here?
Answer: 126%

Question: How did the “cleaved PARP positive nuclei fraction” value turn out when `N#CC[C@H](C1CCCC1)n1cc(-c2ncnc3[nH]ccc23)cn1` [ruxolitinib] + COc1ccc(COc2ccc(Cc3cnc(N)nc3N)cc2OC)cc1 [GW2580] (first compound 1 µM, partner dose 1 µM) was run?
Answer: 119%

Question: How did the “cleaved PARP positive nuclei fraction” value turn out when `Cc1ccc(Nc2nccc(N(C)c3ccc4c(C)n(C)nc4c3)n2)cc1S(N)(=O)=O` [Pazopanib] + CCc1ccc(CCOc2ccc(CC3SC(=O)NC3=O)cc2)nc1 [pioglitazone] (first compound 0.4 µM, partner dose 2 µM) was run?
Answer: 71.3%

Question: Which “cleaved PARP positive nuclei fraction” value does the source give for `Cc1cc(Nc2cc(N3CCN(C)CC3)nc(Sc3ccc(NC(=O)C4CC4)cc3)n2)n[nH]1` [Tozasertib] + c1cc(-c2cnn3cc(-c4ccc(OCCN5CCCCC5)cc4)cnc23)ccn1 [Dorsomorphin] (first compound 0.006 µM, partner dose 0.4 µM) here?
Answer: 114%

Question: Which “cleaved PARP positive nuclei fraction” value does the source give for `Cc1ccc(Nc2nccc(N(C)c3ccc4c(C)n(C)nc4c3)n2)cc1S(N)(=O)=O` [Pazopanib] + COC(=O)c1sccc1S(=O)(=O)Nc1ccc(Nc2ccccc2)cc1OC [GSK0660] (first compound 0.4 µM, partner dose 1 µM) here?
Answer: 123%

Question: Which “cleaved PARP positive nuclei fraction” value does the source give for `COc1cc([C@@H]2c3cc4c(cc3[C@@H](O[C@@H]3O[C@@H]5CO[C@@H](C)O[C@H]5[C@H](O)[C@H]3O)[C@H]3COC(=O)[C@H]23)OCO4)cc(OC)c1O` [etoposide] + O=S(=O)(c1ccccc1)N(CC(F)(F)F)c1ccc(C(O)(C(F)(F)F)C(F)(F)F)cc1 [T0901317] (first compound 0.02 µM, partner dose 1.4 µM) here?
Answer: 67.9%

Question: Which “cleaved PARP positive nuclei fraction” value does the source give for `O=c1[nH]nc(Sc2ncc([N+](=O)[O-])s2)n1-c1ccc2c(c1)OCCO2` + c1cc(-c2cnn3cc(-c4ccc(OCCN5CCCCC5)cc4)cnc23)ccn1 [Dorsomorphin] (first compound 0.2 µM, partner dose 0.4 µM) here?
Answer: 110%

Question: How did the “cleaved PARP positive nuclei fraction” value turn out when `Cc1cc(Nc2cc(N3CCN(C)CC3)nc(Sc3ccc(NC(=O)C4CC4)cc3)n2)n[nH]1` [Tozasertib] + Oc1cc(-c2nc(-c3ccccc3)[nH]c2-c2ccncc2)ccc1Cl [L779450] (first compound 0.006 µM, partner dose 0.2 µM) was run?
Answer: 114%

Question: Which “cleaved PARP positive nuclei fraction” value does the source give for `Cc1cc(Nc2cc(N3CCN(C)CC3)nc(Sc3ccc(NC(=O)C4CC4)cc3)n2)n[nH]1` [Tozasertib] + Cn1cc(/C=C2\C(=O)Nc3cccnc32)c2ccccc21 [GW441756] (first compound 0.006 µM, partner dose 0.4 µM) here?
Answer: 95.2%

Question: With `Cc1cn(-c2cc(NC(=O)c3ccc(C)c(Nc4nccc(-c5cccnc5)n4)c3)cc(C(F)(F)F)c2)cn1` [nilotinib] + O=C(O)C(=O)Nc1sc2c(c1C(=O)O)CCNC2 [TCS401] (first compound 0.2 µM, partner dose 1.66667 µM) as the molecule, how does the “cleaved PARP positive nuclei fraction” value read?
Answer: 79.9%

Question: With `Cc1cn(-c2cc(NC(=O)c3ccc(C)c(Nc4nccc(-c5cccnc5)n4)c3)cc(C(F)(F)F)c2)cn1` [nilotinib] + O=S(=O)(c1ccccc1)N(CC(F)(F)F)c1ccc(C(O)(C(F)(F)F)C(F)(F)F)cc1 [T0901317] (first compound 0.2 µM, partner dose 1.4 µM) as the molecule, how does the “cleaved PARP positive nuclei fraction” value read?
Answer: 86.4%

Question: `COc1cc([C@@H]2c3cc4c(cc3[C@@H](O[C@@H]3O[C@@H]5CO[C@@H](C)O[C@H]5[C@H](O)[C@H]3O)[C@H]3COC(=O)[C@H]23)OCO4)cc(OC)c1O` [etoposide] + Cc1cc([N+](=O)[O-])ccc1NS(=O)(=O)c1cc(Cl)ccc1Cl [FH535] (first compound 0.02 µM, partner dose 1 µM) was tested. Which “cleaved PARP positive nuclei fraction” value did it give?
Answer: 276%

Question: For `N#CC[C@H](C1CCCC1)n1cc(-c2ncnc3[nH]ccc23)cn1` [ruxolitinib] + N#Cc1c(O)c2c(-c3ccc(-c4ccccc4O)cc3)csc2[nH]c1=O [A769662] (first compound 1 µM, partner dose 2 µM), which “cleaved PARP positive nuclei fraction” value is on record?
Answer: 231%

Question: Which “cleaved PARP positive nuclei fraction” value does the source give for `COc1cc([C@@H]2c3cc4c(cc3[C@@H](O[C@@H]3O[C@@H]5CO[C@@H](C)O[C@H]5[C@H](O)[C@H]3O)[C@H]3COC(=O)[C@H]23)OCO4)cc(OC)c1O` [etoposide] + O=C1NC(=O)/C(=C/c2ccc(-c3ccc(F)cc3O)o2)S1 [AS252424] (first compound 0.02 µM, partner dose 1 µM) here?
Answer: 97.6%

Question: Which “cleaved PARP positive nuclei fraction” value does the source give for `COc1cc([C@@H]2c3cc4c(cc3[C@@H](O[C@@H]3O[C@@H]5CO[C@@H](C)O[C@H]5[C@H](O)[C@H]3O)[C@H]3COC(=O)[C@H]23)OCO4)cc(OC)c1O` [etoposide] + CC(C)CCN1c2nc(Nc3cc(F)c(O)c(F)c3)ncc2N(C)C(=O)C1C [BID1870] (first compound 0.02 µM, partner dose 0.2 µM) here?
Answer: 87%

Question: For `Cc1ccc(Nc2nccc(N(C)c3ccc4c(C)n(C)nc4c3)n2)cc1S(N)(=O)=O` [Pazopanib] + CCN(CC)CCCCNc1ncc2cc(-c3cc(OC)cc(OC)c3)c(NC(=O)NC(C)(C)C)nc2n1 [PD173074] (first compound 0.4 µM, partner dose 0.1 µM), which “cleaved PARP positive nuclei fraction” value is on record?
Answer: 141%

Question: For `Cc1cn(-c2cc(NC(=O)c3ccc(C)c(Nc4nccc(-c5cccnc5)n4)c3)cc(C(F)(F)F)c2)cn1` [nilotinib] + COc1ccc2c(c1)CCC1C2CCC2(C)C(NCCCCCCN3C(=O)C=CC3=O)CCC12 [U73122] (first compound 0.2 µM, partner dose 0.4 µM), which “cleaved PARP positive nuclei fraction” value is on record?
Answer: 68.6%

Question: How did the “cleaved PARP positive nuclei fraction” value turn out when `N#CC[C@H](C1CCCC1)n1cc(-c2ncnc3[nH]ccc23)cn1` [ruxolitinib] + COc1ccc2c(c1)CCC1C2CCC2(C)C(NCCCCCCN3C(=O)C=CC3=O)CCC12 [U73122] (first compound 1 µM, partner dose 0.4 µM) was run?
Answer: 131%

Question: `CCCCCCCCCCCCCCCCCCOP(=O)([O-])OC1CC[N+](C)(C)CC1` [Perifosine] + O=C(O)C(=O)Nc1sc2c(c1C(=O)O)CCNC2 [TCS401] (first compound 0.4 µM, partner dose 1.66667 µM) was tested. Which “cleaved PARP positive nuclei fraction” value did it give?
Answer: 73%

Question: Which “cleaved PARP positive nuclei fraction” value does the source give for `Cc1cn(-c2cc(NC(=O)c3ccc(C)c(Nc4nccc(-c5cccnc5)n4)c3)cc(C(F)(F)F)c2)cn1` [nilotinib] + COc1cc(N2CCC(N3CCN(C)CC3)CC2)ccc1Nc1ncc(Cl)c(Nc2ccccc2S(=O)(=O)C(C)C)n1 [NVP-TAE684] (first compound 0.2 µM, partner dose 0.08 µM) here?
Answer: 94.3%

Question: For `Cc1ccc(Nc2nccc(N(C)c3ccc4c(C)n(C)nc4c3)n2)cc1S(N)(=O)=O` [Pazopanib] + O=C(Nc1ccccc1)c1cc([N+](=O)[O-])ccc1Cl [GW9662] (first compound 0.4 µM, partner dose 2 µM), which “cleaved PARP positive nuclei fraction” value is on record?
Answer: 120%

Question: How did the “cleaved PARP positive nuclei fraction” value turn out when `O=C(Nc1cc(C(F)(F)F)cc(C(F)(F)F)c1)c1cc(Cl)ccc1O` + O=C(O)C(=O)Nc1sc2c(c1C(=O)O)CCNC2 [TCS401] (first compound 0.016 µM, partner dose 1.66667 µM) was run?
Answer: 141%
